PubChem BioAssay AID1259308, NCATS | 2017

Purpose: 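Knock-downs that increase output of a recombinant reporter protein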 (primary screen)
Cells: human HEK293 embryonic kidney cells stably expressing firefly luciferase (HEK-CMV-Luc2-Hygro)
Reagents: single siRNA against human genes, 0.8 pmol siRNA per well
Timing: 72 h
Detection: 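Luciferase light (ONE-Glo) measured on one replicate plate set and viability (CellTiter-Glo) on the other, scaled to a negative control siRNA, with robust z-scores and luciferase per cell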
Direction: total luciferase, z-score and total luciferase, % of control: higher = more reporter protein produced; luciferase per cell, z-score: higher = more reporter output per viable cell; viable cells, % of control: higher = more viable cells
Rule for the call: 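An siRNA counts as active if its total luciferase robust z-score exceeds 3; genes with two or more such siRNAs out of three were retested with fresh siRNAs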
Meaning of the calls: active = raised luciferase; inactive = no rise
In all, the deposit lists about 59,000 reagents; shown is a random part of them. Of all reagents, about 1,510 (2.6%) got an active call. 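Calls use total luciferase alone and ignore viability, so some active siRNAs may act by altering cell number.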 Entries without a mark were called inactive. The numbers tell different reagents against one gene apart.

Gene | reagent | total luciferase, z-score | total luciferase, % of control | luciferase per cell, z-score | viable cells, % of control
CASP1 | 1 | -1.59 | 50.3 | -1.59 | 85.4
CASP1 | 2 | -1.65 | 49.1 | -1.82 | 88.5
CASP1 | 3 | -0.463 | 72.7 | -1.34 | 116
ATAD1 | 1 | 0.0205 | 82.3 | 0.0522 | 90.7
ATAD1 | 2 | 0.0985 | 83.8 | 0.3 | 86.6
ATAD1 | 3 | -1.9 | 44.2 | -2.15 | 86.9
MAPK8 | 1 | -1.82 | 45.8 | -2.25 | 92.4
MAPK8 | 2 | 0.823 | 98.2 | 0.485 | 96.6
MAPK8 | 3 | 0.761 | 97 | 0.156 | 104
ABHD10 | 1 | 0.975 | 101 | 0.41 | 102
ABHD10 | 2 | 0.366 | 89.2 | -0.104 | 102
ABHD10 | 3 | -0.726 | 67.4 | -1.21 | 104
RNF225 | 1 | -2.02 | 41.7 | -1.04 | 61.3
RNF225 | 2 | 0.0253 | 82.4 | -0.0239 | 92.6
RNF225 | 3 | -1.13 | 59.3 | -1.1 | 88.5
CFHR5 | 1 | -0.0533 | 80.8 | -0.0226 | 90.9
CFHR5 | 2 | 1.08 | 103 | 0.431 | 103
CFHR5 | 3 | -0.797 | 66 | -0.833 | 91.9
ZNF785 | 1 | -0.618 | 69.6 | -0.629 | 91.8
ZNF785 | 2 | 0.775 | 97.3 | 0.551 | 94
ZNF785 | 3 | 0.923 | 100 | -0.22 | 119
NAXD | 1 | -0.348 | 75 | 0.344 | 76.5
NAXD | 2 | 0.0815 | 83.5 | -0.00034 | 93.3
NAXD | 3 | 0.85 | 98.8 | 0.203 | 105
HOXD3 | 1 | 0.0486 | 82.9 | 0.268 | 86.3
HOXD3 | 2 | -1.04 | 61.1 | -1.03 | 89.7
HOXD3 | 3 | 1.79 | 117 | 1.57 | 86.8

Continued; the last 2 above are carried over.
Gene | reagent | total luciferase, z-score | total luciferase, % of control | luciferase per cell, z-score | viable cells, % of control
HOXD3 | 2 | -1.04 | 61.1 | -1.03 | 89.7
HOXD3 | 3 | 1.79 | 117 | 1.57 | 86.8
PHAF1 | 1 | 1.19 | 106 | 1.02 | 90.3
PHAF1 | 2 | -0.416 | 73.6 | -0.671 | 98.2
PHAF1 | 3 | -0.301 | 75.9 | -0.588 | 99
IHO1 | 1 | -0.59 | 70.2 | -0.591 | 91.6
IHO1 | 2 | -0.68 | 68.4 | -0.661 | 90.9
IHO1 | 3 | -1.23 | 57.5 | -2.43 | 122
SULF1 | 1 | -1.37 | 54.7 | -1.37 | 87.8
SULF1 | 2 | -0.105 | 79.8 | -0.299 | 96.5
SULF1 | 3 | -0.785 | 66.3 | -0.161 | 77.3
EDN1 | 1 | 0.151 | 84.9 | -0.054 | 96.2
EDN1 | 2 | 0.012 | 82.1 | -0.0502 | 93
EDN1 | 3 | -1.5 | 52.1 | -1.83 | 94.4
INPP4B | 1 | 0.52 | 92.2 | 0.298 | 95.3
INPP4B | 2 | 1.34 | 109 | 0.917 | 95.2
INPP4B | 3 | -0.347 | 75 | 0.0779 | 82.1
ATG2B | 1 | -0.714 | 67.7 | -0.306 | 82
ATG2B | 2 | -2.92 | 23.7 | -3.93 | 74.7
ATG2B | 3 | 0.781 | 97.4 | 0.757 | 89.2
CHRM4 | 1 | 1.99 | 121 | 2.33 | 73.4
CHRM4 | 2 | 1.48 | 111 | 0.696 | 104
CHRM4 | 3 | -0.304 | 75.8 | 1.25 | 60.9
TCP10L2 | 1 | -0.157 | 78.8 | 0.813 | 71.1
TCP10L2 | 2 | -0.782 | 66.3 | -0.485 | 84.2
TCP10L2 | 3 | 0.278 | 87.4 | 0.33 | 89.5
SRSF3 | 1 | 0.117 | 84.2 | -0.0635 | 95.7
SRSF3 | 2 | 2.99 | 141 | 3.6 | 61.2
SRSF3 | 3 | 0.531 | 92.4 | 1.52 | 69.2
TSPAN31 | 1 | 0.697 | 95.7 | 0.825 | 86.1
TSPAN31 | 2 | -0.948 | 63 | -0.66 | 83.8
TSPAN31 | 3 | 1.32 | 108 | 1.19 | 88.3
